From PubChem BioAssay AID1117319 (Southern Research Institute, 2015)
Out of some 260,000 compounds screened, about 1,500 (0.58%) were called active. This list was built around the results that the source calls inconclusive (neither active nor inactive); the mix of calls is not that of the screen.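 Rule for the calls: active = inhibition above a set limit at one or more doses, reproduced on every date tested; inconclusive = results disagree between test dates, or hit never tested in dose response; inactive = the rest.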

Protein sequences, listed by entry. Tags and fused reporters are not part of them. Lines headed by an entry give the natural chain unless they say otherwise; changes in a name come on top.
UniProt P69720: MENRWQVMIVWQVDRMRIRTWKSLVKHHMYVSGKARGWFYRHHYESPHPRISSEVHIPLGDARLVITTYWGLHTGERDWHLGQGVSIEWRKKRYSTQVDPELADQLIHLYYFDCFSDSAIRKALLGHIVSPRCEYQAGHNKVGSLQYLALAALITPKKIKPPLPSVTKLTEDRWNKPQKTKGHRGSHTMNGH
UniProt P69721: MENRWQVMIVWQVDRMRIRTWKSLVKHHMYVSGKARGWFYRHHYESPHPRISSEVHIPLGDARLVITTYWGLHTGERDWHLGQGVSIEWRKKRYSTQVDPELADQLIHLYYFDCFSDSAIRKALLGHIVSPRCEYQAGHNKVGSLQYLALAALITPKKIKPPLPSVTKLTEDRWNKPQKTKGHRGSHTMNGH
UniProt P69722: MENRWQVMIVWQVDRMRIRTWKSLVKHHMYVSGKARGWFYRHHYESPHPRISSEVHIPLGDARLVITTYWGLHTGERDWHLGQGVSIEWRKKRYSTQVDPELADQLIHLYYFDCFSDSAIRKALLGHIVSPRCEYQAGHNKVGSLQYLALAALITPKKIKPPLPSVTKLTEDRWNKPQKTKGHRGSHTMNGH
UniProt P69723: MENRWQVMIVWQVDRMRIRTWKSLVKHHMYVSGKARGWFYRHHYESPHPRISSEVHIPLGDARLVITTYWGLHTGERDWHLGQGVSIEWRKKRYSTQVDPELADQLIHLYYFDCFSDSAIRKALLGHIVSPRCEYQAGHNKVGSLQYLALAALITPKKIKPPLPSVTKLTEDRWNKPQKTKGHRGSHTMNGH
UniProt Q9HC16: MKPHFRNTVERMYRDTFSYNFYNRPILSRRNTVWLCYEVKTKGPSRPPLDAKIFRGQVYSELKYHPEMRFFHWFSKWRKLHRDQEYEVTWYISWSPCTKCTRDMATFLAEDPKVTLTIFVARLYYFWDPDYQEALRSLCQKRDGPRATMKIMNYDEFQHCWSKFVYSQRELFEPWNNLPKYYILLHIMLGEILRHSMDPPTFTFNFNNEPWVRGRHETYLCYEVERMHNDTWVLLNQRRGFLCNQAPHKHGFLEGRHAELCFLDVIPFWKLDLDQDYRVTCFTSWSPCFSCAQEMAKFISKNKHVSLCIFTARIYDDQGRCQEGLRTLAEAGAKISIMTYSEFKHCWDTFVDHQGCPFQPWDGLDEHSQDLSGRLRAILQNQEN

Target: Virion infectivity factor (Human immunodeficiency virus type 1 group M subtype B (isolate BH10)) + Virion infectivity factor (Human immunodeficiency virus type 1 group M subtype B (isolate BRU/LAI)) + Virion infectivity factor (Human immunodeficiency virus type 1 group M subtype B (isolate PCV12)) + Virion infectivity factor (Human immunodeficiency virus type 1 group M subtype B (isolate HXB2)) + DNA dC->dU-editing enzyme APOBEC-3G (Homo sapiens) (UniProt P69720+P69721+P69722+P69723+Q9HC16)
Assay: inhibitors of Vif binding to APOBEC3G peptide, primary screen, biochemical, TR-FRET, GST-Vif 1-94, biotin-A3G peptide, dose response retest (AID 1117319);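 note: Vif residues 1-94 fused to GST binding biotinylated APOBEC3G peptide 110-148; 0% = full assay without inhibitor and 100% = GST in place of GST-Vif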
Conditions: stronger effect = higher value

Row | Structure (SMILES) | inhibition
1 | COC(=O)c1ccc(C(=O)OC)c(=O)[nH]1 | inactive: 0.04%
2 | CC(=O)Nc1ccc(NC(=O)C(C)Sc2nnc(-c3cccs3)o2)cc1 (stereo unspecified) | inconclusive: 60.8%
3 | COc1ccc(N(C(=O)CCl)C(C(=O)NCCc2ccccc2)c2cccs2)cc1Cl (stereo unspecified) | inconclusive: 51.3%
4 | COc1cc(-c2nc(-c3ccc4c(c3)-c3ccccc3S4(=O)=O)c(-c3ccccc3)[nH]2)cc(OC)c1O | inconclusive: 28%
5 | CCNC(=O)CC1SC(=Nc2ccc(C)cc2)N(CC)C1=O (stereo unspecified) | inconclusive: 38.5%
6 | O=C(N/N=C\c1ccc(F)cc1)c1csnn1 | inconclusive: 35.8%
7 | COc1ccc2[nH]c3c(N4CCN(Cc5ccc6c(c5)OCO6)CC4)ncnc3c2c1 | inconclusive: 35.8%
8 | CCOc1ccc(-c2cn(S(=O)(=O)c3cccc4nsnc34)nc2N)cc1 | inconclusive: 58.4%
9 | CCOc1ccc(NC(=O)c2ccc(CNc3c(N4CCCC4)c(=O)c3=O)cc2)cc1 | inconclusive: 55.8%
10 | COc1ccc(NC(=O)Nc2ccon2)c(OC)c1 | inconclusive: 41.2%
11 | O=C(Oc1c(-c2ccccc2)oc2ccccc2c1=O)c1ccccc1 | inactive: -7.08%
12 | C[n+]1ccc(/C=N/Nc2nc(Cl)c(C#N)c(Cl)c2Cl)cc1 | inconclusive: 45.8%
13 | CN=C1c2cc3cc(OC)ccc3n2CCN1C | inconclusive: 42.5%
14 | Cc1ccc(C2NC(C(=O)O)CS2)cc1 (stereo unspecified) | inconclusive: 38.1%
15 | Cc1ccc(C)c(N2CCN(Cc3nnnn3C3CCCCC3)CC2)c1 | inconclusive: 37.9%
16 | C=CCSC1=Nc2sccc2C2=NC(=O)CN12 | inconclusive: 46.3%
17 | CCOc1cc(C(=O)CCC(=O)OCC(=O)NC(=O)NCC(C)C)ccc1O | inconclusive: 54.7%
18 | Cn1c(-c2cccc([N+](=O)[O-])c2)[n+](C)c2ccccc21 | inconclusive: 34%
19 | CN(C)S(=O)(=O)c1ccc(Cl)c(NC(=O)COC(=O)/C=C/c2ccc(S(=O)(=O)N3CCOCC3)cc2)c1 | inconclusive: 37.1%

Given comma-delimited: part of the list above
Row,Structure (SMILES),inhibition
1,COC(=O)c1ccc(C(=O)OC)c(=O)[nH]1,inactive: 0.04%
2,CC(=O)Nc1ccc(NC(=O)C(C)Sc2nnc(-c3cccs3)o2)cc1 (stereo unspecified),inconclusive: 60.8%
3,COc1ccc(N(C(=O)CCl)C(C(=O)NCCc2ccccc2)c2cccs2)cc1Cl (stereo unspecified),inconclusive: 51.3%
4,COc1cc(-c2nc(-c3ccc4c(c3)-c3ccccc3S4(=O)=O)c(-c3ccccc3)[nH]2)cc(OC)c1O,inconclusive: 28%
5,CCNC(=O)CC1SC(=Nc2ccc(C)cc2)N(CC)C1=O (stereo unspecified),inconclusive: 38.5%
6,O=C(N/N=C\c1ccc(F)cc1)c1csnn1,inconclusive: 35.8%
8,CCOc1ccc(-c2cn(S(=O)(=O)c3cccc4nsnc34)nc2N)cc1,inconclusive: 58.4%
9,CCOc1ccc(NC(=O)c2ccc(CNc3c(N4CCCC4)c(=O)c3=O)cc2)cc1,inconclusive: 55.8%
10,COc1ccc(NC(=O)Nc2ccon2)c(OC)c1,inconclusive: 41.2%
11,O=C(Oc1c(-c2ccccc2)oc2ccccc2c1=O)c1ccccc1,inactive: -7.08%
12,C[n+]1ccc(/C=N/Nc2nc(Cl)c(C#N)c(Cl)c2Cl)cc1,inconclusive: 45.8%
13,CN=C1c2cc3cc(OC)ccc3n2CCN1C,inconclusive: 42.5%
14,Cc1ccc(C2NC(C(=O)O)CS2)cc1 (stereo unspecified),inconclusive: 38.1%
15,Cc1ccc(C)c(N2CCN(Cc3nnnn3C3CCCCC3)CC2)c1,inconclusive: 37.9%
17,CCOc1cc(C(=O)CCC(=O)OCC(=O)NC(=O)NCC(C)C)ccc1O,inconclusive: 54.7%
18,Cn1c(-c2cccc([N+](=O)[O-])c2)[n+](C)c2ccccc21,inconclusive: 34%

(next part)

Row | Structure (SMILES) | inhibition
20 | CCn1c(/C=C/c2ccc(O)c(O)c2)nc2ccccc2c1=O | inactive: 23.1%
21 | COc1ccc(OC)c(S(=O)(=O)N2CCC(C(=O)NCc3ccccn3)CC2)c1 | inconclusive: 37%
22 | CC(=O)OCC1=C(C(=O)O)N2C(=O)[C@@H](NC(=O)CSc3ccncc3)[C@H]2SC1 | inconclusive: 33.7%
23 | CCS(=O)(=O)N1CCC(C(=O)Nc2cc(Cl)ccc2O)CC1 | inconclusive: 55.4%
24 | COc1ccc(CCN2CC(C(=O)NC3CCCCC3)CC2=O)cc1OC (stereo unspecified) | inconclusive: 38.9%
25 | O=C(CSc1nnc(Nc2ccccc2)s1)Nc1cccc(S(=O)(=O)N2CCCCC2)c1 | inconclusive: 35.2%
26 | Cn1cnnc1SCC(=O)c1c[nH]c2ccccc12 | inconclusive: 51.5%
27 | O=C1NC(NS(=O)(=O)c2ccc(Cl)cc2)(C(F)(F)F)C(=O)N1c1ccccc1 (stereo unspecified) | inconclusive: 39.9%
28 | CC(/C=N/n1c(-c2cccnc2)n[nH]c1=S)=C\c1ccco1 | inconclusive: 59.8%
29 | COc1ccc2cc(CN(Cc3ccco3)C(=S)NCC3CCCO3)c(=O)[nH]c2c1 (stereo unspecified) | inactive: -22.6%
30 | CCCCC1CC(CSC(=N)N)OC1=O (stereo unspecified) | inconclusive: 57.2%
31 | COc1cccc(=O)c2c(C)n(C)c(C)c12 | inconclusive: 59.6%
32 | Cc1ccc(OC(=S)Nc2ccc(O)cc2)cc1 | inconclusive: 53.9%
33 | Cc1cccc(N2CCC(NCc3c(C(=O)N4CCCCC4)nc4c(C)cccn34)CC2)c1 | inconclusive: 45.4%
34 | CCC(c1nnnn1Cc1ccco1)N(Cc1cc2cc(C)cc(C)c2[nH]c1=O)CC1CCCO1 (stereo unspecified) | inconclusive: 38%
35 | CC(=O)OCC1=C(C(=O)O)N2C(=O)C(NC(=O)C(C)Cn3nc(C)c(Cl)c3C)C2SC1 (stereo unspecified) | inconclusive: 39.9%
36 | O=C(OCc1nc2ccsc2c(=O)[nH]1)c1ccc(Cl)s1 | inactive: 11.9%
37 | COc1ccc(CCc2nnc(CCC(=O)NCc3cc(C(C)C)no3)o2)cc1 | inconclusive: 35.6%
38 | CCCCn1c(SCc2cccc([N+](=O)[O-])c2)nc2ccsc2c1=O | inconclusive: 36.7%

Row | Structure (SMILES) | inhibition
39 | Cc1cc(C)nc(SCc2cc(=O)c(OC(=O)c3ccc(Cl)c([N+](=O)[O-])c3)co2)n1 | inactive: 31.3%
40 | COC(=O)CSc1ncnc2c1sc1nc(-c3ccco3)c3c(c12)CC(C)(C)OC3 | inconclusive: 33%
41 | COC(=O)c1nnn(-c2nonc2N)c1COc1ccc(C=O)cc1OC | inconclusive: 46.3%
42 | CCC(=O)N(Cc1ccc2c(c1)OCO2)Cc1cc2cc(OC)ccc2[nH]c1=O | inconclusive: 38.8%
43 | COc1ccc(CCNC(=O)Cn2cnc3c(cnn3C(C)(C)C)c2=O)cc1OC | inactive: -3.55%
44 | O=C1CC(N2CCC(c3nc4ccccc4o3)CC2)C(=O)N1c1ccc(Cl)c(C(F)(F)F)c1 (stereo unspecified) | inconclusive: 58.6%
45 | CCCC(=O)Nc1c(O)c2ccccc2[nH]c1=O | inconclusive: 39.8%
46 | CC1(C)Cc2ccccc2C2CC(O)C(=O)N21 (stereo unspecified) | inactive: 4.18%
47 | COc1cc(C2NC(=S)NC(c3ccccc3)=C2C(C)=O)cc(Cl)c1OCC(=O)O (stereo unspecified) | inconclusive: 45.4%
48 | O=C(O)C1C2C=CC(O2)C1C(=O)NCCC1=CCCCC1 (stereo unspecified) | inconclusive: 33.6%
49 | Cn1c(SCc2ccc(Cl)cc2Cl)nc(C(F)(F)F)cc1=O | inconclusive: 56.8%
50 | COc1cc(CNCCCCO)ccc1OCc1ccccc1F | inconclusive: 33.4%
51 | N#Cc1c(-c2ccccc2)nc(N2CCOCC2)[nH]c1=O | inconclusive: 35%
52 | Oc1cccc2c(NC(=S)Nc3ccc(OC(F)F)cc3)cccc12 | inconclusive: 43.5%
53 | CN(C(=O)c1ccccn1)c1nnc(-c2cnccn2)s1 | inconclusive: 58.6%
54 | CCn1c2ccccc2c2cc(/C=N/NC(=O)c3ccccc3)ccc21 | inconclusive: 50.4%
55 | Cn1c(=O)[nH]c(=O)c2c1nc(Br)n2CCCSc1nc2ccccc2o1 | inconclusive: 39.8%
56 | COc1ccccc1N1CCN(C2CC(=O)N(C)C2=O)CC1 (stereo unspecified) | inconclusive: 53.8%
